Results taken from PubChem BioAssay AID224 (DTP/NCI, 2004).
The list shows only some results of the screen, not a fair sample: its compounds were picked by chemical class. Not every dose and run of a compound is shown. T/C gives the treated animals as a percentage of the vehicle group. For survival time, this PubChem deposit counts one and a half times the control or more as active, and values a quarter to a half above the control carry no call in these data; other NCI protocols may use other cut-offs. Some entries show no survivor count and are marked so; the dose need not have been tolerated. Schedules are NCI's codes, taken here to give the interval after Q, in days (D) or hours (H), and the number of doses after X. Some schedule codes hold Z or #, which are not explained here. Some entries hold several experiments; the values are given in rising order.

Tested on: P335 leukemia ip, BDF1 mice, survival T/C %
Experiment: NCI In Vivo Anticancer Drug Screen. Data for tumor model P335 Leukemia (intraperitoneal) in B6D2F1 (BDF1) mice
Details: T/C endpoint: mean survival time, schedule: Q01DX Z (ip), higher T/C = longer survival
Experimental: The antitumor activity of compounds was measured in mice bearing transplantable tumors. Survival or tumor size were measured and the results are expressed as the measurement made in the treated group (T) divided by the measurement made in the vehicle treated control group (C). The tumor model used in this assay is P335 Leukemia (intraperitoneal) in B6D2F1 (BDF1) mice

[1] = dose: 0.62 mg/kg/injection, vehicle: carboxymethylcellulose (CMC)
[2] = dose: 1.25 mg/kg/injection, vehicle: carboxymethylcellulose (CMC)

ClCCNCCCl
T/C (dose: 3.1 mg/kg/injection, vehicle: carboxymethylcellulose (CMC)): 102 % of control [survivor count not shown]
T/C (dose: 6.25 mg/kg/injection, vehicle: carboxymethylcellulose (CMC)): 86 % of control [survivor count not shown]
T/C (dose: 12.5 mg/kg/injection, vehicle: carboxymethylcellulose (CMC)): 92 [survivor count not shown] and 127 % of control [survivor count not shown]
T/C (dose: 25.0 mg/kg/injection, vehicle: carboxymethylcellulose (CMC)): 98 [survivor count not shown], 99 [survivor count not shown], 124 % of control [survivor count not shown]
T/C (dose: 50.0 mg/kg/injection, vehicle: carboxymethylcellulose (CMC)): 102 [survivor count not shown] and 135 % of control [survivor count not shown]

CC(C(=O)O)N(CCCl)CCCl (configuration not stated)
T/C (dose: 0.31 mg/kg/injection, vehicle: carboxymethylcellulose (CMC)): 96 % of control [survivor count not shown]
T/C [1]: 100 % of control [survivor count not shown]
T/C [2]: 87 % of control [survivor count not shown]

O=C(O)CN(CCCl)CCCl
T/C (dose: 0.5 mg/kg/injection, vehicle: saline): 105 % of control [survivor count not shown]
T/C (dose: 1.0 mg/kg/injection, vehicle: saline): 87 % of control [survivor count not shown]
T/C (dose: 2.0 mg/kg/injection, vehicle: saline): 111 % of control [survivor count not shown]
T/C (dose: 4.0 mg/kg/injection, vehicle: saline): 94 % of control [survivor count not shown]

ClCCN(CCCl)Cc1nc2ccccc2[nH]1
T/C [2]: 87 % of control [survivor count not shown]
T/C (dose: 2.5 mg/kg/injection, vehicle: carboxymethylcellulose (CMC)): 88 % of control [survivor count not shown]
T/C (dose: 5.0 mg/kg/injection, vehicle: carboxymethylcellulose (CMC)): 103 % of control [survivor count not shown]

NC(Cc1cccc(N(CCCl)CCCl)c1)C(=O)O (configuration not stated)
T/C [1]: 103 % of control [survivor count not shown]
T/C [2]: 111 % of control [survivor count not shown]
